Measurements reported in PubChem BioAssay AID686938 (Drosophila RNAi Screening Center, 2013).
In all, the deposit lists about 23,000 reagents; this is a random part of those that have a named target and a result. Over the whole deposit, 75 (0.33%) got an active call. 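Raw plate signals without normalisation; calls rest on plate z-scores that were not deposited; ratio present for only 364 wells.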 Entries without a mark were called inactive. The numbers tell different reagents against one gene apart. Not given: the dose of the treatment.

Screen: 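Looking for CRAC channel components and the factors controlling them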 (primary screen)
System: Drosophila S2R+ cells
Knock-down reagent: long dsRNA against Drosophila genes, about 0.25 µg dsRNA per well, roughly 10,000 cells
Timing: 5 days of knock-down before the calcium assay
Challenge: thapsigargin (SERCA pump blocker) to empty calcium stores; entry signal taken 4 min after adding it
Detection: 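Duplicate raw fluo-4 intensities per well from a plate reader, at rest and four minutes after thapsigargin emptied calcium stores; entry-to-rest ratio filled for only some wells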
Reading the numbers: calcium entry signal: higher = stronger calcium signal after store depletion; entry to resting ratio: higher = more calcium entry relative to resting level; resting calcium signal: higher = higher resting calcium signal
Active means: 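Called when the plate z-score of the entry-to-rest ratio, mean of duplicates, falls below −3; wells with low overall dye signal (Fmax z below −2) or more than five off-targets excluded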
Meaning of the calls: active = strongly reduced calcium entry; inactive = no strong reduction

no.	target gene	reagent no.	calcium entry signal, replicate 1 (fluorescence units)	calcium entry signal, replicate 2 (fluorescence units)	entry to resting ratio	resting calcium signal, replicate 1 (fluorescence units)	resting calcium signal, replicate 2 (fluorescence units)
1	Atox1 (Antioxidant 1 copper chaperone)	1	3.41e7	3.39e7		1.68e7	1.47e7
2	CG17734	1	3.43e7	4.22e7		1.72e7	1.98e7
3	Rgk3 (Rad, Gem/Kir family member 3)	1	2.76e7	4.13e7		1.47e7	2.02e7
4	Rgk3 (Rad, Gem/Kir family member 3)	2	5.06e7	4.67e7		2.44e7	2.00e7
5	Rgk3 (Rad, Gem/Kir family member 3)	3	4.23e7	4.67e7		2.07e7	2.01e7
6	Rgk3 (Rad, Gem/Kir family member 3)	4	3.97e7	4.51e7		1.99e7	1.98e7
7	Prosbeta4R2 (Proteasome beta4 subunit-related 2)	1	3.81e7			2.10e7	
8	ctp (cut up)	1	2.02e7	1.80e7		9.96e6	9.70e6
9	CG31523	1	2.98e7	4.27e7		1.72e7	2.01e7
10	CG31523	2	4.25e7	2.82e7		1.82e7	1.52e7
11	BBS9 (Bardet-Biedl syndrome 9)	1	2.97e7	5.11e7		1.36e7	1.89e7
12	Hmg-2 (High mobility group protein 2)	1	4.18e7			2.22e7	
13	Gmppb (GDP-mannose pyrophosphorylase B)	1	2.67e7	3.11e7		1.14e7	1.44e7
14	Mnr (Membrane-bound Notch regulator)	1	3.81e7	3.93e7		2.22e7	1.80e7
15	Mnr (Membrane-bound Notch regulator)	2	3.88e7	4.12e7		2.19e7	1.76e7
16	Mnr (Membrane-bound Notch regulator)	3	4.60e7	4.16e7		2.30e7	1.95e7
17	S-Lap2 (Sperm-Leucylaminopeptidase 2)	1	2.75e7	3.39e7		1.42e7	1.59e7
18	CG12539	1	3.96e7	3.72e7		2.18e7	1.75e7
19	CG30110	1	3.68e7	3.98e7		1.81e7	1.98e7
20	cpo (couch potato)	1	4.38e7	3.18e7		2.09e7	1.52e7
21	cpo (couch potato)	2	4.87e7	3.09e7		2.58e7	1.65e7
22	cpo (couch potato)	3	1.92e7	2.65e7		1.32e7	5.18e7
23	cpo (couch potato)	4	2.38e7	2.66e7		1.42e7	4.88e7
24	cpo (couch potato)	5	2.85e7	2.96e7		6.56e7	1.71e7
25	cpo (couch potato)	6	5.38e7	3.17e7		2.64e7	1.48e7
26	tn (retired record)	1	3.90e7	4.90e7		1.80e7	2.37e7
27	tn (retired record)	2	2.32e7	2.03e7		1.11e7	9.91e6
28	epsilonTry (epsilonTrypsin)	1	2.68e7	4.01e7		1.41e7	1.70e7
29	Gnmt (Glycine N-methyltransferase)	1	4.19e7	3.85e7		2.16e7	2.03e7
30	CG8500	1	3.48e7	3.22e7		1.80e7	1.64e7
31	COX5BL (Cytochrome c oxidase subunit 5B-like)	1	2.91e7	2.55e7		1.49e7	1.33e7
32	lncRNA:sphinx (long non-coding RNA:sphinx)	1	5.23e7	5.92e7	2.2	2.34e7	2.32e7
33	dl (dorsal)	1	4.34e7			2.47e7	
34	dl (dorsal)	2	3.39e7	3.18e7		1.85e7	1.40e7
35	CG42821	1	3.58e7	2.22e7		1.67e7	1.12e7
36	aay (astray)	1	5.54e7	4.66e7		3.83e7	1.81e7
37	Cib2 (Calcium and integrin binding family member 2)	1	4.29e7	4.29e7		2.12e7	1.89e7
38	Torsin	1	2.99e7	4.53e7		1.83e7	2.46e7

A portion taken from the entries so far, as a working copy:
no.	target gene	reagent no.	calcium entry signal, replicate 1 (fluorescence units)	calcium entry signal, replicate 2 (fluorescence units)	entry to resting ratio	resting calcium signal, replicate 1 (fluorescence units)	resting calcium signal, replicate 2 (fluorescence units)
29	Gnmt (Glycine N-methyltransferase)	1	4.19e7	3.85e7		2.16e7	2.03e7
30	CG8500	1	3.48e7	3.22e7		1.80e7	1.64e7
31	COX5BL (Cytochrome c oxidase subunit 5B-like)	1	2.91e7	2.55e7		1.49e7	1.33e7
32	lncRNA:sphinx (long non-coding RNA:sphinx)	1	5.23e7	5.92e7	2.2	2.34e7	2.32e7
33	dl (dorsal)	1	4.34e7			2.47e7	
34	dl (dorsal)	2	3.39e7	3.18e7		1.85e7	1.40e7
35	CG42821	1	3.58e7	2.22e7		1.67e7	1.12e7
36	aay (astray)	1	5.54e7	4.66e7		3.83e7	1.81e7

Continued:
no.	target gene	reagent no.	calcium entry signal, replicate 1 (fluorescence units)	calcium entry signal, replicate 2 (fluorescence units)	entry to resting ratio	resting calcium signal, replicate 1 (fluorescence units)	resting calcium signal, replicate 2 (fluorescence units)
39	Eig71Ef (Ecdysone-induced gene 71Ef)	1	5.50e7	6.96e7		2.55e7	2.75e7
40	Vps24 (Vacuolar protein sorting 24)	1	3.25e7	8.83e7		1.50e7	2.92e7
41	RhoGAP19D (Rho GTPase activating protein at 19D)	1	2.72e7	2.86e7		1.54e7	1.35e7
42	RhoGAP19D (Rho GTPase activating protein at 19D)	2	4.95e7	4.88e7		2.21e7	2.12e7
43	hng2 (hinge2)	1	5.57e7	3.52e7		2.55e7	1.74e7
44	natalisin	1	2.33e7	2.76e7		1.31e7	2.92e7
45	natalisin	2	2.59e7	3.09e7		1.33e7	5.26e7
46	Polr2E (RNA polymerase II, I and III subunit E)	1	1.45e7	3.70e7		9.86e6	1.66e7
47	CG32075	1	2.50e7	3.71e7		1.44e7	1.65e7
48	Cpr11B (Cuticular protein 11B)	1	4.27e7	4.13e7		1.80e7	1.78e7
49	Stacl (Stac-like)	1	4.74e7	4.62e7		3.20e7	2.45e7
50	Stacl (Stac-like)	2	3.84e7	3.50e7		1.97e7	1.63e7
51	Stacl (Stac-like)	3	4.08e7	3.59e7		2.04e7	1.66e7
52	Stacl (Stac-like)	4	3.77e7	3.53e7		1.93e7	1.65e7
53	Stacl (Stac-like)	5	1.95e7	2.61e7		1.24e7	1.27e7
54	Stacl (Stac-like)	6	5.18e7	3.33e7		2.49e7	1.43e7
55	Stacl (Stac-like)	7	6.51e7	2.24e7		2.80e7	1.07e7
56	rdgBbeta	1	4.30e7	5.60e7		1.87e7	2.73e7
57	CG15767	1	3.09e7	3.85e7		1.62e7	1.80e7
58	CG5412	1	3.56e7	3.47e7		1.65e7	1.54e7
